# Experimental data reported in PubChem BioAssay AID493014 (National Center for Advancing Translational Sciences (NCATS), 2011).
# This is one part of the list. Shown are side measurements of this screen, not its main read-out; they come without a call. Compounds called inactive in the main read-out are mostly missing here. Words in brackets tell the shape of the fitted curve; partial curves, single points and poor fits give uncertain potencies.
# Test: qHTS Assay to Find Inhibitors of Chronic Active B-Cell Receptor Signaling
# Conditions: ABC-DLBCL IkBa-CBG/CBR reporter, luminescence ratio (green luciferase fused to IkBa over red control in TMD8 lymphoma cells), 4 h
# Method in brief: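 Cell line TMD8 (human ABC DLBCL), stably expressing tet-inducible CBG68-IkBa fusion and CBR; IMDM/0.5% FBS; cpd up to 46 uM; dox induction, 4 h, 37C/5% CO2; dual luminescence; green/red ratio; MG132 control.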
# [1] = measured here: CBR red luminescence, cell number
# [2] = measured here: IkBa-CBG green luminescence
Compound,AC50 [1],AC50 [2]
O=C(c1ccco1)[C@@H]1[C@@H]2C(=O)N(c3ccc(Br)cc3)C(=O)[C@@H]2C2c3ccccc3C=CN21 (some centres undefined),"20 µM [falling, single point]",
Cc1nc(C)c(C(=O)N/N=C/c2c[nH]c3ccccc23)s1,"1.84 µM [falling, partial curve, poor fit]",
CC(=O)n1c(-c2ccccc2)c(CO)c2ccccc21,"8.91 µM [rising, partial curve]",
CN(C)n1cnc2ccsc2c1=O,"35.5 µM [rising, single point]",
Cc1ccc(-n2c(SCC(=O)OC(C)C)nnc2-c2ccco2)cc1,"2 µM [rising, full curve, poor fit]",
N/C(=N\OC(=O)Cc1cccs1)c1ccccc1,"5.62 µM [rising, single point]",
O=C(/C=C(/c1ccc(Cl)cc1)n1cncn1)c1ccccc1,"3.66 µM [rising, partial curve, poor fit]",
Cc1cc(C(=O)Nc2nnc(C3CCCCC3)s2)cs1,"0.00517 µM [rising, full curve, poor fit]",
COC(=O)c1ccc(COc2cccc3c2OC(C)(C)C3)cc1,"12.6 µM [falling, single point]",
Cc1[nH][nH]c(=O)c1C(c1ccc(N(C)C)c(Br)c1)c1c(C)[nH][nH]c1=O,"35.5 µM [falling, single point]",
N#Cc1c(NC(=O)c2ccccc2)sc2c1CCCCC2,"8.2 µM [falling, partial curve, poor fit]",
O=c1[nH]c(N/N=C/c2ccccc2)nc2ccccc12,"5.8 µM [falling, partial curve]",
Cn1c(-c2ccc3ccccc3n2)[n+](C)c2ccccc21,"31.6 µM [rising, single point]",
N#Cc1nc(N2CCCC2)nc(N2CCCC2)n1,"12.6 µM [rising, single point]","11.2 µM [falling, partial curve, poor fit]"
O=C(NC1=NCCS1)c1sc2cc(Cl)cc(Cl)c2c1Cl,"2.91 µM [rising, full curve, poor fit]",
CCOC(=O)c1cnc(SC2CCc3ccccc3C2=O)nc1N (centres undefined),"5.01 µM [falling, full curve, poor fit]",
Cc1cc(NC(=O)C2CC2)ccc1NC(=O)c1cccs1,"0.355 µM [rising, full curve, poor fit]",
O=C1CSc2nc3ccccc3n21,"0.631 µM [falling, full curve, poor fit]",
Cc1nc2cc(-c3ccccc3)nn2c(C)c1CCC(=O)N1CCN(c2ccccn2)CC1,"2.91 µM [falling, partial curve, poor fit]",
Cc1ccc(NC(=O)CSc2nccn(-c3ccc4c(c3)OCCO4)c2=O)cc1,"0.259 µM [rising, full curve, poor fit]",
COC(=O)c1cccc(Nc2c(-c3ccc(O)c(OC)c3)nc3nc[nH]n23)c1,"8.91 µM [rising, partial curve, poor fit]",

# Three neighbouring compounds from above, for reference:
Compound,AC50 [1],AC50 [2]
CN(C)n1cnc2ccsc2c1=O,"35.5 µM [rising, single point]",
Cc1ccc(-n2c(SCC(=O)OC(C)C)nnc2-c2ccco2)cc1,"2 µM [rising, full curve, poor fit]",
N/C(=N\OC(=O)Cc1cccs1)c1ccccc1,"5.62 µM [rising, single point]",

# The listing continues:

Compound,AC50 [1],AC50 [2]
CCOc1nc(-c2ccccc2)ccc1-c1noc(COC)n1,"2.31 µM [rising, single point]",
CN(C)CCCN(C(=O)CCS(=O)(=O)c1ccccc1)c1nc2cc3c(cc2s1)OCO3,"4.47 µM [falling, partial curve, poor fit]","35.5 µM [rising, single point]"
CCOC(=O)c1c(NC(=O)c2cc(-c3ccc(Cl)s3)nc3ccccc23)sc(C(N)=O)c1C,"2.31 µM [falling, partial curve, poor fit]",
O=C(Nc1ccc(NC(=O)C2CC2)cc1)c1cccs1,"25.1 µM [falling, single point]",
COc1cccc(N2C(=O)CC(c3c[nH]c4ccccc34)C2=O)c1 (centres undefined),"0.411 µM [falling, full curve]",
CCn1ncc([N+](=O)[O-])c1C(=O)N1CCCC1,"0.259 µM [falling, full curve, poor fit]",
O=C1Nc2c(Br)cc(Br)cc2C1(O)N1CCOCC1 (centres undefined),"31.6 µM [rising, single point]","35.5 µM [falling, single point]"
Cn1c(=O)c2c(ncn2CC(O)CO)n(C)c1=O (centres undefined),"29.1 µM [rising, single point]",
CC(Oc1ccccc1)C(=O)Nc1oc(-c2ccco2)c(-c2ccco2)c1C#N (centres undefined),"0.82 µM [falling, partial curve, poor fit]",
Cc1cccc(-n2cnc(C(=O)NNC(=S)Nc3ccc(Cl)cc3)c2)n1,"14.1 µM [rising, partial curve, poor fit]",
COc1ccc(/C=C2\SC(=O)N(CCC(=O)NCCCn3ccnc3)C2=O)cc1,"7.08 µM [falling, partial curve, poor fit]",
CCOC(=O)[C@H]1[C@H]2COc3ccc(Cl)cc3[C@@H]2N2C(=O)c3cc(Cl)ccc3NC(=O)[C@@]12C,"23.1 µM [falling, single point]","23.1 µM [rising, partial curve, poor fit]"
COC(=O)c1sc(NC(=O)COc2cccc(C)c2)nc1C,"1.16 µM [falling, full curve]",
CCOC(=O)/C(=N\Nc1ccccc1Cl)N1CCN(Cc2ccccc2)CC1,"0.206 µM [falling, partial curve, poor fit]",
Cc1c(-c2nc(N)nc(Nc3ccccc3)n2)oc2ccccc12,"10.3 µM [falling, partial curve]",
c1ccc2[nH]c(CSc3ncnc4c3oc3ccccc34)nc2c1,"1.41 µM [rising, partial curve, poor fit]",
Cc1cc(N2CCC(C)CC2)n2nc(C)c(-c3ccccc3)c2n1,"4.47 µM [rising, single point]",
COc1cc(C=O)ccc1OCC(=O)N1CCCC1,"11.2 µM [rising, partial curve, poor fit]",
CCC1CCCCN1CCCNC(=O)CS(=O)Cc1nc(-c2ccc(OC)c(OC)c2)oc1C (centres undefined),"10 µM [falling, partial curve, poor fit]",
CC(C)C(=O)Nc1ccccc1N1CCN(C(=O)c2ccccc2)CC1,"29.1 µM [rising, single point]",
COc1ccc(-c2ccc(CNCc3ccccn3)o2)cc1Cl,"35.5 µM [rising, single point]",

Compound,AC50 [1],AC50 [2]
O=S(=O)(Cc1cc(-c2ccc(Cl)cc2)no1)c1ccccc1,"0.259 µM [rising, full curve, poor fit]",
O=[N+]([O-])c1ccc(F)cc1OCc1nc(-c2cccs2)no1,"0.708 µM [rising, full curve, poor fit]",
Cn1c(/C=C/c2ccccc2)nc2ccccc21,"14.1 µM [falling, single point]",
Nc1ccccc1SC(C[N+](=O)[O-])c1ccccc1 (centres undefined),"20 µM [rising, single point]","20 µM [falling, single point]"
CC(/C=N/NC(=O)c1ccccc1F)c1ccccc1 (centres undefined),"7.94 µM [falling, partial curve]",
CCC(C)C(=O)N1CCCC(c2nc(-c3cccs3)no2)C1 (centres undefined),"18.4 µM [rising, partial curve, poor fit]",
CN(Cc1ccccc1)C(=O)c1ccc(NC(=O)C2CCCN(C(=O)OC(C)(C)C)C2)cc1 (centres undefined),"32.6 µM [falling, single point]",
O=C(/C=C/c1ccccc1)NC(NC(=S)Nc1ccc(Cl)cc1)C(Cl)(Cl)Cl (centres undefined),"14.1 µM [rising, single point]",
O=C(Nc1ccc(CN2CCOCC2)cc1)c1cc2ccccc2o1,"29.1 µM [falling, single point]",
CCN(CC(=O)Nc1ccccc1OC)C(=O)CN1C(=O)NC(C)(c2ccc(C)cc2)C1=O (centres undefined),"0.164 µM [rising, full curve, poor fit]",
O=C(Nc1ncccc1O)c1ccc2c(c1)OCCO2,"20.6 µM [falling, partial curve, poor fit]",
CN(CC(=O)Nc1c(Cl)cccc1Cl)C(=O)c1sccc1-c1ccccc1,"1.64 µM [rising, single point]",
CCC/S(CC1CC1(Cl)Cl)=N\S(=O)(=O)c1ccc(C)cc1 (centres undefined),"29.1 µM [rising, single point]",
COc1ccc(/C=N\NC(=O)c2ccccc2F)cc1COc1ccc(F)cc1F,"35.5 µM [falling, single point]","5.01 µM [falling, full curve]"
Cc1ccc(Cn2ccsc2=NC(=O)COC(=O)c2ccc(O)cc2O)cc1,"25.1 µM [falling, partial curve, poor fit]",
CCOc1ccc(-c2nc(-c3cccnc3)no2)cc1,"1.03 µM [rising, full curve, poor fit]",
O=C(NCc1cccnc1)C1CCN(Cc2cc3ccccc3n2Cc2cccc(Cl)c2)CC1,"25.1 µM [falling, single point]",
Cc1cc2nc(C3CCCN(C(=S)Nc4ccccc4)C3)[nH]c2cc1C (centres undefined),"1.78 µM [falling, full curve]",
CC(=O)N(C(C)=O)c1c(C#N)c(C)n(-c2ccccc2)c1C(=O)c1ccccc1,"29.1 µM [falling, single point]",
Cc1ccc(C(=O)N/N=C/c2ccc3c(c2)OCO3)o1,"7.31 µM [falling, partial curve]",
CN(C)C(=O)N1CCN(C(=O)c2ccccc2Sc2ccccc2C#N)CC1,"6.51 µM [falling, single point]",
